# Measurements published in paper doi:10.1101/481754.
# Chains of the proteins cited; added tags and fusions are not shown. Lines headed by an entry give the natural chain unless they say otherwise; changes in a name come on top.
# UniProt O43399, whole entry: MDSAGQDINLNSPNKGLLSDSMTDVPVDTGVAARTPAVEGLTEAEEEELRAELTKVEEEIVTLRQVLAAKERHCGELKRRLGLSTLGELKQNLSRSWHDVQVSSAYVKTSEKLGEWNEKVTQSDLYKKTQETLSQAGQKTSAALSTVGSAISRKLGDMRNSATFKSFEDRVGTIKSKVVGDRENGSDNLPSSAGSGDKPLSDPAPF
# UniProt P51149, whole entry: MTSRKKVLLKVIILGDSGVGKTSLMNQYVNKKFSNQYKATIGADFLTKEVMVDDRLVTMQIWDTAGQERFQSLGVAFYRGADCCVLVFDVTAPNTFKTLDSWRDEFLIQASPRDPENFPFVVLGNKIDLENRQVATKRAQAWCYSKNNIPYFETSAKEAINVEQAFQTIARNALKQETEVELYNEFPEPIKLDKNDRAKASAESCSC
# UniProt P62491, whole entry: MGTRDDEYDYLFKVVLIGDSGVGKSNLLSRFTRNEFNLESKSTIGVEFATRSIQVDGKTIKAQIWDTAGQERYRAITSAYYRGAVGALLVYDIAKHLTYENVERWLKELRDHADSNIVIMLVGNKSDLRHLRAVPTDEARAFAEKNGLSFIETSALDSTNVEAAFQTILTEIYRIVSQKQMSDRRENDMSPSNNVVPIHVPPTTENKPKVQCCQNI
# UniProt Q9H0U4, whole entry: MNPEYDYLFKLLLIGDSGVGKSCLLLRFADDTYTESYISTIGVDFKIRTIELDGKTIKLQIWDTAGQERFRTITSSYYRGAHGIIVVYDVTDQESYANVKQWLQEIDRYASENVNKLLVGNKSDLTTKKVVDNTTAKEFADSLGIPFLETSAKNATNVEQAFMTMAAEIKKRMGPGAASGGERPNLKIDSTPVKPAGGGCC
# UniProt P61019, whole entry: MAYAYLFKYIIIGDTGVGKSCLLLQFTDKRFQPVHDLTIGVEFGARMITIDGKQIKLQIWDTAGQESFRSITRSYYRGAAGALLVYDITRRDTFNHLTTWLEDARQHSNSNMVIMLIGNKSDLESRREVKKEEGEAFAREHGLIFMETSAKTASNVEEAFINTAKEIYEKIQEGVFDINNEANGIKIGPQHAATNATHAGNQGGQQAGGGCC
# UniProt P61026, whole entry: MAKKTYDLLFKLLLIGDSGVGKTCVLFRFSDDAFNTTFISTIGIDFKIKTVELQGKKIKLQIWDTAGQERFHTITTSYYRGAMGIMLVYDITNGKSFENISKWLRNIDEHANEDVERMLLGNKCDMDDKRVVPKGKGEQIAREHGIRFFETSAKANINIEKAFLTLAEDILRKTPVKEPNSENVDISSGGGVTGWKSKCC
# UniProt Q9H082, whole entry: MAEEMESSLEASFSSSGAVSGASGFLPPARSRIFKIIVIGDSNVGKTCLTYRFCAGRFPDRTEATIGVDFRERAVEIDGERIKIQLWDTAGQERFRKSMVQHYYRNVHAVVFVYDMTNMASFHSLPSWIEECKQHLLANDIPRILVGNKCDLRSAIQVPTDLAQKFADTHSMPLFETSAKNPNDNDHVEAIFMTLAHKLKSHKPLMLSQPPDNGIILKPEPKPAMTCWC
# Results are given in words; binding and its absence hold for the method and conditions named. Some entries that bind do so weakly or less than the wild type. For part of these data: Sequences can lack the tags named with a protein.
# T1: GFP-FKBP-Rab25 (UniProt P57735)
# T1 sequence: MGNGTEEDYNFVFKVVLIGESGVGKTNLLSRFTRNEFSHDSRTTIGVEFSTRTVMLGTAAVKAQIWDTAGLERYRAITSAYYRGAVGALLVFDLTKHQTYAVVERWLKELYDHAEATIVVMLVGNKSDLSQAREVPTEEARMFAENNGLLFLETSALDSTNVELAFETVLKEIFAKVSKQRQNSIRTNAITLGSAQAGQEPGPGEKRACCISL
# Columns and labels:
# Assay in all cases: co-rerouting to mitochondria
# [1] = biological target: mCherry-FKBP-TPD54 (human) (UniProt O43399)
# [2] = biological target: GFP-FKBP-Rab7a (UniProt P51149)
# [3] = biological target: T1, GFP-FKBP-Rab25
# [4] = biological target: GFP-FKBP-Rab11a (UniProt P62491)
Molecule,binding [1],other results
GFP-Rab1a (from UniProt P62820 1-205),binds,
GFP-Rab1a Q70L (from UniProt P62820 1-205),binds,
GFP-Rab1a S25N (from UniProt P62820 1-205),no binding,
GFP-Rab1b (from UniProt Q9H0U4 1-201),binds,
GFP-Rab2a (from UniProt P61019 1-212),binds,
GFP-Rab7a (from UniProt P51149 1-207),no binding,
GFP-Rab10 (from UniProt P61026 1-200),binds,
GFP-Rab11a (from UniProt P62491 1-216),binds,
GFP-Rab33b (from UniProt Q9H082 1-229),binds,
mCherry-TPD54 (from UniProt O43399 1-206),,binding [2]: no binding; binding [3]: binds; binding [4]: binds
"GFP-Rab26 (protein, UniProt Q9ULW5 1-256) MSRKKTPKSKGASTPAASTLPTANGARPARSGTALSGPDAPPNGPLQPGRPSLGGGVDFYDVAFKVMLVGDSGVGKTCLLVRFKDGAFLAGTFISTVGIDFRNKVLDVDGVKVKLQMWDTAGQERFRSVTHAYYRDAHALLLLYDVTNKASFDNIQAWLTEIHEYAQHDVALMLLGNKVDSAHERVVKREDGEKLAKEYGLPFMETSAKTGLNVDLAFTAIAKELKQRSMKAPSEPRFRLHDYVKREGRGASCCRP",binds,
"GFP-Rab45 (protein, UniProt Q8IZ41 1-740) MEADGDGEELARLRSVFAACDANRSGRLEREEFRALCTELRVRPADAEAVFQRLDADRDGAITFQEFARGFLGSLRGGRRRDWGPLDPAPAVSEAGPETHDSEEDEGDEDAAAALATSCGPASPGRAWQDFQARLGDEAKFIPREEQVSTLYQNINLVEPRLIQPYEHVIKNFIREIRLQSTEMENLAIAVKRAQDKAAMQLSELEEEMDQRIQAAEHKTRKDEKRKAEEALSDLRRQYETEVGDLQVTIKKLRKLEEQSKRVSQKEDVAALKKQIYDLSMENQKVKKDLLEAQTNIAFLQSELDALKSDYADQSLNTERDLEIIRAYTEDRNSLERQIEILQTANRKLHDSNDGLRSALENSYSKFNRSLHINNISPGNTISRSSPKFIGHSPQPLGYDRSSRSSYVDEDCDSLALCDPLQRTNCEVDSLPESCFDSGLSTLRDPNEYDSEVEYKHQRGFQRSHGVQESFGGDASDTDVPDIRDEETFGLEDVASVLDWKPQGSVSEGSIVSSSRKPISALSPQTDLVDDNAKSFSSQKAYKIVLAGDAAVGKSSFLMRLCKNEFRENISATLGVDFQMKTLIVDGERTVLQLWDTAGQERFRSIAKSYFRKADGVLLLYDVTCEKSFLNIREWVDMIEDAAHETVPIMLVGNKADIRDTAATEGQKCVPGHFGEKLAMTYGALFCETSAKDGSNIVEAVLHLAREVKKRTDKDDSRSITNLTGTNSKKSPQMKNCCNG",binds,
"GFP-Rab12 (protein, UniProt Q6IQ22 1-340) MLLPLLRSSCFPSSSPGGGGGSGGGGGGGDPGAESRPAAQLQRGAHGPPGPLQRAEAEPGADPPRAAEAEGAPGPGARSRGAGGGGRRAEREPHACMDPGAALQRRAGGGGGLGAGSPALSGGQGRRRKQPPRPADFKLQVIIIGSRGVGKTSLMERFTDDTFCEACKSTVGVDFKIKTVELRGKKIRLQIWDTAGQERFNSITSAYYRSAKGIILVYDITKKETFDDLPKWMKMIDKYASEDAELLLVGNKLDCETDREITRQQGEKFAQQITGMRFCEASAKDNFNVDEIFLKLVDDILKKMPLDILRNELSNSILSLQPEPEIPPELPPPRPHVRCC",binds,
"GFP-Rab43 (protein, UniProt Q86YS6 1-212) MAGPGPGPGDPDEQYDFLFKLVLVGDASVGKTCVVQRFKTGAFSERQGSTIGVDFTMKTLEIQGKRVKLQIWDTAGQERFRTITQSYYRSANGAILAYDITKRSSFLSVPHWIEDVRKYAGSNIVQLLIGNKSDLSELREVSLAEAQSLAEHYDILCAIETSAKDSSNVEEAFLRVATELIMRHGGPLFSEKSPDHIQLNSKDIGEGWGCGC",binds,
"GFP-Rab19 (protein, UniProt A4D1S5 1-217) MHFSSSARAADENFDYLFKIILIGDSNVGKTCVVQHFKSGVYTETQQNTIGVDFTVRSLDIDGKKVKMQVWDTAGQERFRTITQSYYRSAHAAIIAYDLTRRSTFESIPHWIHEIEKYGAANVVIMLIGNKCDLWEKRHVLFEDACTLAEKYGLLAVLETSAKESKNIEEVFVLMAKELIARNSLHLYGESALNGLPLDSSPVLMAQGPSEKTHCTC",binds,
"GFP-Rab33a (protein, UniProt Q14088 1-237) MAQPILGHGSLQPASAAGLASLELDSSLDQYVQIRIFKIIVIGDSNVGKTCLTFRFCGGTFPDKTEATIGVDFREKTVEIEGEKIKVQVWDTAGQERFRKSMVEHYYRNVHAVVFVYDVTKMTSFTNLKMWIQECNGHAVPPLVPKVLVGNKCDLREQIQVPSNLALKFADAHNMLLFETSAKDPKESQNVESIFMCLACRLKAQKSLLYRDAERQQGKVQKLEFPQEANSKTSCPC",binds,
"GFP-Rab37 (protein, UniProt Q96AX2 1-223) MTGTPGAVATRDGEAPERSPPCSPSYDLTGKVMLLGDTGVGKTCFLIQFKDGAFLSGTFIATVGIDFRNKVVTVDGVRVKLQIWDTAGQERFRSVTHAYYRDAQALLLLYDITNKSSFDNIRAWLTEIHEYAQRDVVIMLLGNKADMSSERVIRSEDGETLAREYGVPFLETSAKTGMNVELAFLAIAKELKYRAGHQADEPSFQIRDYVESQKKRSSCCSFM",binds,
"GFP-Rab30 Q68L (protein, UniProt Q15771 1-203) MSMEDYDFLFKIVLIGNAGVGKTCLVRRFTQGLFPPGQGATIGVDFMIKTVEINGEKVKLQIWDTAGLERFRSITQSYYRSANALILTYDITCEESFRCLPEWLREIEQYASNKVITVLVGNKIDLAERREVSQQRAEEFSEAQDMYYLETSAKESDNVEKLFLDLACRLISEARQNTLVNNVSSPLPGEGKSISYLTCCNFN",binds,
"GFP-TPD52 (protein, UniProt P55327 1-224) MDCREMDLYEDYQSPFDFDAGVNKSYLYLSPSGNSSPPGSPTLQKFGLLRTDPVPEEGEDVAATISATETLSEEEQEELRRELAKVEEEIQTLSQVLAAKEKHLAEIKRKLGINSLQELKQNIAKGWQDVTATSAYKKTSETLSQAGQKASAAFSSVGSVITKKLEDVKNSPTFKSFEEKVENLKSKVGGTKPAGGDFGEVLNSAANASATTTEPLPEKTQESL",binds,
"GFP-Rab30 (protein, UniProt Q15771 1-203) MSMEDYDFLFKIVLIGNAGVGKTCLVRRFTQGLFPPGQGATIGVDFMIKTVEINGEKVKLQIWDTAGQERFRSITQSYYRSANALILTYDITCEESFRCLPEWLREIEQYASNKVITVLVGNKIDLAERREVSQQRAEEFSEAQDMYYLETSAKESDNVEKLFLDLACRLISEARQNTLVNNVSSPLPGEGKSISYLTCCNFN",binds,
"GFP-Rab25 (protein, UniProt P57735 1-213) MGNGTEEDYNFVFKVVLIGESGVGKTNLLSRFTRNEFSHDSRTTIGVEFSTRTVMLGTAAVKAQIWDTAGLERYRAITSAYYRGAVGALLVFDLTKHQTYAVVERWLKELYDHAEATIVVMLVGNKSDLSQAREVPTEEARMFAENNGLLFLETSALDSTNVELAFETVLKEIFAKVSKQRQNSIRTNAITLGSAQAGQEPGPGEKRACCISL",binds,
"GFP-Rab30 T23N (protein, UniProt Q15771 1-203) MSMEDYDFLFKIVLIGNAGVGKNCLVRRFTQGLFPPGQGATIGVDFMIKTVEINGEKVKLQIWDTAGQERFRSITQSYYRSANALILTYDITCEESFRCLPEWLREIEQYASNKVITVLVGNKIDLAERREVSQQRAEEFSEAQDMYYLETSAKESDNVEKLFLDLACRLISEARQNTLVNNVSSPLPGEGKSISYLTCCNFN",no binding,
